Source: PubChem BioAssay AID1259254 (NCATS, 2017)

Aim: 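Gene knock-downs that lead to re-replication, shown by excess G2 DNA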 (primary screen)
System: human HCT116 colorectal cancer cells
Reagents: single siRNA against human genes
Time to read-out: 3 days
Read-out: 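Imaged Hoechst DNA stain sorts each cell into a cycle phase by DNA amount; per plate, G2 fraction set to 0% for non-targeting and 100% for GMNN siRNA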
Reading the numbers: G2 robust z-score and G2 cells, % of GMNN control: higher = more G2 cells, more excess DNA replication; raw share of cells in G2: higher = larger share of cells with G2 DNA content
Call rule: 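Active siRNAs have a G2 robust z of 5 or more median absolute deviations over the median, which in these data means about 38% or higher of GMNN control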
Shown is a random part of about 59,000 deposited reagents. About 1,550 of them (2.6%) were called active. 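G2 share is only a proxy for re-replication; each gene was hit by three separate siRNAs, and active genes were retested.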 Raw values are not corrected between plates. Reagents against one gene are numbered here. Not given: the amount of reagent.

no.	Gene	reagent	G2 robust z-score	G2 cells, % of GMNN control	raw share of cells in G2 (%)	Outcome
1	FAT1	1	0.462	6.22	7.5	inactive
2	FAT1	2	0.0882	3.59	6.63	inactive
3	FAT1	3	2.37	19.6	10.6	inactive
4	USE1	1	0.264	4.82	4.68	inactive
5	USE1	2	-0.996	-4.04	2.97	inactive
6	USE1	3	-0.0928	2.31	5.1	inactive
7	KCMF1	1	2.18	18.3	11.6	inactive
8	KCMF1	2	1.76	15.4	11.8	inactive
9	KCMF1	3	0.534	6.72	5.16	inactive
10	MRPS30	1	0.786	8.5	8.31	inactive
11	MRPS30	2	-0.824	-2.83	2.97	inactive
12	MRPS30	3	-0.858	-3.07	2.03	inactive
13	CA11	1	8.55	63.2	27.5	active
14	CA11	2	-0.295	0.891	5.02	inactive
15	CA11	3	-0.103	2.24	5.87	inactive
16	TEFM	1	-0.366	0.39	4.61	inactive
17	TEFM	2	0.0892	3.6	5.88	inactive
18	TEFM	3	-0.795	-2.63	1.66	inactive
19	LRRC8C	1	1.42	12.9	8.41	inactive
20	LRRC8C	2	0.22	4.51	4.8	inactive
21	LRRC8C	3	0.378	5.62	4.11	inactive
22	OR1K1	1	0.751	8.25	6.81	inactive
23	OR1K1	2	-0.798	-2.65	2.46	inactive
24	OR1K1	3	-0.594	-1.21	4.29	inactive
25	ERP29	1	7.51	55.8	26.9	active
26	ERP29	2	2.13	18	11.6	inactive
27	ERP29	3	1.75	15.3	8.9	inactive
28	SPMIP6	1	-0.954	-3.74	1.27	inactive
29	SPMIP6	2	2.36	19.5	10.6	inactive
30	SPMIP6	3	3.13	25	10.9	inactive
31	SLFNL1	1	0.971	9.8	7.11	inactive
32	SLFNL1	2	-0.547	-0.879	2.66	inactive
33	SLFNL1	3	-0.358	0.449	2.9	inactive
34	DUSP21	1	0.0215	3.12	4.44	inactive
35	DUSP21	2	-0.6	-1.26	4.39	inactive
36	DUSP21	3	-0.67	-1.74	3.78	inactive
37	CP	1	1.29	12	9.26	inactive
38	CP	2	9.5	69.8	30.5	active
39	CP	3	-0.0427	2.67	5.01	inactive
40	CCR4	1	-0.769	-2.44	4.97	inactive
41	CCR4	2	-0.386	0.25	4.6	inactive
42	CCR4	3	0.981	9.87	6.3	inactive
43	CDADC1	1	0.477	6.33	6.48	inactive
44	CDADC1	2	-0.716	-2.07	4.02	inactive
45	CDADC1	3	-0.583	-1.13	4.96	inactive
46	HAPLN1	1	-0.662	-1.69	4.51	inactive
47	HAPLN1	2	0.623	7.35	6.78	inactive
48	HAPLN1	3	0.623	7.35	6.4	inactive
49	RHBDF2	1	0.171	4.17	6.18	inactive
50	RHBDF2	2	2.93	23.6	14.6	inactive
51	RHBDF2	3	0.525	6.66	4.2	inactive
52	UTS2B	1	-1.33	-6.38	1.31	inactive
53	UTS2B	2	-0.771	-2.46	2.09	inactive
54	UTS2B	3	-0.6	-1.26	2.88	inactive
55	G0S2	1	0.807	8.64	5.98	inactive
56	G0S2	2	-0.048	2.63	4.86	inactive
57	G0S2	3	-0.619	-1.39	4.02	inactive
58	CTU2	1	-0.0426	2.67	4.9	inactive
59	CTU2	2	-0.752	-2.32	2.24	inactive
60	CTU2	3	-0.712	-2.04	3.37	inactive
61	RNF138	1	-0.283	0.974	3.14	inactive
62	RNF138	2	0.206	4.42	7.91	inactive
63	RNF138	3	-0.044	2.66	4.47	inactive
64	NFKB2	1	1.26	11.8	9.94	inactive
65	NFKB2	2	2.99	24	11.1	inactive
66	NFKB2	3	10.7	78.1	36.4	active
67	HES6	1	0.252	4.74	8.51	inactive
68	HES6	2	-0.999	-4.06	2.64	inactive
69	HES6	3	-0.951	-3.72	3.1	inactive

Limited to “G2 cells, % of GMNN control”, for 3 of the entries above:
FAT1 #2: 3.59
FAT1 #3: 19.6
USE1 #1: 4.82
